Results reported in PMC6095690, “Coalescing beneficial host and deleterious antiparasitic actions as an antischistosomal strategy” (eLife, 2018).

Amino acid sequences for entries named in this document (tags omitted). Residues count along the entry.
UniProt A0A173FEI8, 1-547: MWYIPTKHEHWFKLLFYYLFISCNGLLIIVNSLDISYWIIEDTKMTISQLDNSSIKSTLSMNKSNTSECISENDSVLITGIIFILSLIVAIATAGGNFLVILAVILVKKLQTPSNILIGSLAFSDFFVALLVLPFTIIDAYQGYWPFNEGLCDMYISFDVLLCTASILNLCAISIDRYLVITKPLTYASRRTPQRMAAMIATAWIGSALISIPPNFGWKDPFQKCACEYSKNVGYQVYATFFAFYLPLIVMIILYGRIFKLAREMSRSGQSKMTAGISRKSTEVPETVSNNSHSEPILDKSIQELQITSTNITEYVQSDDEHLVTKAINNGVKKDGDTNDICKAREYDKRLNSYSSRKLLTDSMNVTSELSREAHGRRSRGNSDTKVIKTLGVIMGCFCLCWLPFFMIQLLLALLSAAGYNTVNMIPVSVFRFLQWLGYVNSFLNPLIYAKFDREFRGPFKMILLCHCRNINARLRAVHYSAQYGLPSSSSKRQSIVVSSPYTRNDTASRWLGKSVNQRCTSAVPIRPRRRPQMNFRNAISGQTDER

Biological target: Sm.5HTRL (Schistosoma mansoni, UniProt A0A173FEI8)

With `CCN(CC)C(=O)N[C@H]1C=C2c3cccc4[nH]cc(c34)C[C@H]2N(C)C1` [lisuride, Lisuride, reference compound] the “type of activity at schistosome 5-HTRs” value was “partial agonists”.
